In PubChem BioAssay (NCATS):
Values joined by “and” are separate entries in the source; they are usually repeats but may differ in a detail not shown here. Identical values can stand only once. This is one part of the list. The main result of the screen is listed elsewhere. These columns were measured beside it and carry no call. The list favours compounds with an active or inconclusive main result.

Test: qHTS assay for small molecule agonists of retinoid X receptor alpha signaling (AID 588544)
Settings: HEK293T RXRa-UAS-bla, beta-lactamase reporter, 18 h; 530 nm emission

**Q.** For `Cc1cc(Cc2cc(C)cc(C(C)(C)C)c2O)c(O)c(C(C)(C)C)c1`, which max response is on record?
**A.** -68.1%

**Q.** Which max response does the source give for `Nc1nc2ccc([N+](=O)[O-])cc2s1` here?
**A.** 18.3%

**Q.** Which max response does the source give for `C[C@@H]1CC2(OC3C[C@@]4(C)C5=CC[C@H]6C(C)(C)C(O[C@@H]7OC[C@@H](O)[C@H](O)[C@H]7O)CC[C@@]67C[C@@]57CC[C@]4(C)C31)OC(O)C1(C)OC21` (some centres not stated) here?
**A.** 45.3%

**Q.** With `C=C1C(CCl)(CCl)C2(Cl)C(Cl)C(Cl)C1(Cl)C2(Cl)Cl` (configuration not stated) as the molecule, how does the max response read?
**A.** -64.6%

**Q.** With `CCC(C)Nc1ccc(NC(C)CC)cc1` (configuration not stated) as the molecule, how does the max response read?
**A.** 0.508% and -56.7%

**Q.** With `C[C@@H]1CC2(OC(O)[C@]3(C)O[C@H]23)O[C@H]2C[C@@]3(C)[C@@H]4CC[C@H]5C(C)(C)C(O[C@@H]6OC[C@@H](O)[C@H](O)[C@H]6O)CC[C@@]56C[C@@]46CC[C@]3(C)[C@@H]12` (some centres not stated) as the molecule, how does the max response read?
**A.** 72.7%

**Q.** With `CCCCCCCCCCCC[N+](C)(C)[O-]` as the molecule, how does the max response read?
**A.** 1.58%

**Q.** For `O=C(OCC(COC(=O)c1ccccc1)(COC(=O)c1ccccc1)COC(=O)c1ccccc1)c1ccccc1`, which max response is on record?
**A.** -47.4%

**Q.** With `CC(=O)Nc1ccc(C(=O)CCl)cc1` as the molecule, how does the max response read?
**A.** -1.55% and 45.5%

**Q.** For `CC(=O)S[C@@H]1CC2=CC(=O)CC[C@]2(C)[C@H]2CC[C@@]3(C)[C@@H](CC[C@@]34CCC(=O)O4)[C@H]12`, which max response is on record?
**A.** 69.8%

**Q.** With `C=CC(=O)OCCCCCCOC(=O)C=C` as the molecule, how does the max response read?
**A.** 15.9%

**Q.** For `O=C1c2c(O)ccc([N+](=O)[O-])c2C(=O)c2c([N+](=O)[O-])ccc(O)c21`, which max response is on record?
**A.** 15.2%

**Q.** Which max response does the source give for `C=CC(=O)OCCOCC(CC)(COCCOC(=O)C=C)COCCOC(=O)C=C` here?
**A.** 21.1%

**Q.** With `Cc1cc(=O)oc2cc(O)cc(O)c12` as the molecule, how does the max response read?
**A.** 95.2%

**Q.** With `Cc1cc(O)c(C(C)(C)C)cc1Sc1cc(C(C)(C)C)c(O)cc1C` as the molecule, how does the max response read?
**A.** -73.9% and -50.6%

**Q.** With `CO/N=C1\C[C@]2(C[C@@H]3C[C@@H](C/C=C(\C)C[C@@H](C)/C=C/C=C4\CO[C@@H]5[C@H](O)C(C)=C[C@@H](C(=O)O3)[C@]45O)O2)O[C@H](/C(C)=C/C(C)C)[C@H]1C` as the molecule, how does the max response read?
**A.** -54.7%

Test: qHTS assay for small molecule antagonists of retinoid X receptor alpha signaling (AID 588546);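 further: cells stimulated with 9-cis-retinoic acid as agonist; on the % scale 0 is the no-effect control and ±100 the full control effect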
Settings: HEK293T RXRa-UAS-bla, beta-lactamase ratio, antagonist mode; measured here: W530 green channel, cytotoxicity proxy
In short: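 Beta-lactamase reporter inhibition, read as CCF4 fluorescence ratio (ex 405, em 460/530 nm) after 2 h at RT. HEK293T UAS-bla cells, 2500/well, were stimulated with 9-cis-RA at 500 or 100 nM final alongside test compound for 18 h at 37 C.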

**Q.** For `CCC(=O)C1C(=O)CC(C(=O)O)CC1=O` (configuration not stated), which max response is on record?
**A.** 4.99%

**Q.** Which max response does the source give for `C[C@@H]1CC2(OC3C[C@@]4(C)C5=CC[C@H]6C(C)(C)C(O[C@@H]7OC[C@@H](O)[C@H](O)[C@H]7O)CC[C@@]67C[C@@]57CC[C@]4(C)C31)OC(O)C1(C)OC21` (some centres not stated) here?
**A.** 28%

**Q.** For `C=C1C(CCl)(CCl)C2(Cl)C(Cl)C(Cl)C1(Cl)C2(Cl)Cl` (configuration not stated), which max response is on record?
**A.** -37.3%

**Q.** For `Cc1ccc(S(=O)(=O)C(I)I)cc1`, which max response is on record?
**A.** -28.8%

**Q.** For `CCC(C)Nc1ccc(NC(C)CC)cc1` (configuration not stated), which max response is on record?
**A.** -0.59%

**Q.** With `CCCCCCCCCCCC[N+](C)(C)[O-]` as the molecule, how does the max response read?
**A.** 1.84%

**Q.** For `O=C(OCC(COC(=O)c1ccccc1)(COC(=O)c1ccccc1)COC(=O)c1ccccc1)c1ccccc1`, which max response is on record?
**A.** -24.3%

**Q.** Which max response does the source give for `Cc1nn(C)c(Oc2ccccc2)c1/C=N/OCc1ccc(C(=O)OC(C)(C)C)cc1` here?
**A.** -0.56%

**Q.** With `CCNc1ccccc1` as the molecule, how does the max response read?
**A.** -6.81%

**Q.** For `CC(C)CCCCCCc1ccc(OCCOCCO)cc1`, which max response is on record?
**A.** -51.5%

**Q.** Which max response does the source give for `CC(=O)S[C@@H]1CC2=CC(=O)CC[C@]2(C)[C@H]2CC[C@@]3(C)[C@@H](CC[C@@]34CCC(=O)O4)[C@H]12` here?
**A.** 58.3%

**Q.** For `O=C1c2c(O)ccc([N+](=O)[O-])c2C(=O)c2c([N+](=O)[O-])ccc(O)c21`, which max response is on record?
**A.** 19.9%

**Q.** For `C[C@@H]1CC2(OC[C@]3(C)O[C@H]23)O[C@H]2C[C@@]3(C)[C@@H]4CC[C@H]5C(C)(C)C(O[C@@H]6OC[C@@H](O)[C@H](O)[C@H]6O)CC[C@@]56C[C@@]46CC[C@]3(C)[C@@H]12` (some centres not stated), which max response is on record?
**A.** 23.4%

**Q.** Which max response does the source give for `O=C(O)CN(CCCN(CC(=O)O)CC(=O)O)CC(=O)O` here?
**A.** -5.69%

**Q.** For `C=CC(=O)OCCOCC(CC)(COCCOC(=O)C=C)COCCOC(=O)C=C`, which max response is on record?
**A.** 36.9%

**Q.** With `Cc1cc(O)c(C(C)(C)C)cc1Sc1cc(C(C)(C)C)c(O)cc1C` as the molecule, how does the max response read?
**A.** -44.9% and -51%
